Laboratory results from the supplement of paper PMC10735217.
Structures can show the parent of a compound that is named as a salt. This is one part of the list. Repeats in this data set agree poorly, so a single value says little.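 The human kidney-derived cells carry a stably integrated construct of eight TEAD-binding elements driving luciferase, read by luminescence in a drug-repurposing library screen. A compound counts as a hit when its signal is more than five robust Z scores above the plate mean.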

System: HEK293A TEAD-LUC reporter
Test: TEAD-luciferase reporter activity (YAP activation), robust Z score vs plate; higher = stronger YAP/TEAD activation
Conditions: 24 h

Compound | TEAD-luciferase reporter activity (compound concentration: 200 nM) | TEAD-luciferase reporter activity (compound concentration: 2 uM) | TEAD-luciferase reporter activity (compound concentration: 10 uM)
CCC(C(=O)OCCN1CCN(CCOC(=O)C(CC)c2ccccc2)CC1)c1ccccc1 (centres undefined) | inactive: -0.545 | inactive: 0.277 | inactive: 0.985
CNCc1c(-c2ccc(Cl)cc2)nc2ccccn12 | inactive: -0.418 | inactive: 0.479 | inactive: -0.67
O=C(O)c1ccc(CN(Cc2cccc(F)c2)c2ccc(OCc3ccc4ccccc4c3)cc2)cc1 [analog of ETH-615] | inactive: -0.843 | inactive: 1.08 | inactive: -0.157
O=C1Cc2cc3c(CCC4CCN(Cc5ccccc5)CC4)noc3cc2N1 | inactive: -1.44 | inactive: 0.812 | inactive: 1.34
Cc1c(C)c2ccc(OS(C)(=O)=O)cc2oc1=O | inactive: -0.53 | inactive: 1.43 | inactive: 0.933
Cc1ccc(CC(=O)N(C)[C@H](Cc2ccc3ccccc3c2)C(=O)N[C@H]2CCCC[C@H]2NC(=O)c2c[nH]c3ccccc23)cc1 | inactive: -1.67 | inactive: -1.91 | inactive: -0.395
Cc1cc(O)cc(C)c1Cl | inactive: -0.489 | inactive: 0.686 | inactive: 0.0017
COc1cc(NC(C)CCCN/C(C)=C2/CCOC2=O)c2ncccc2c1 (centres undefined) | inactive: -1.22 | inactive: -0.548 | inactive: -0.0839
O=C(Cn1ccnc1)OCc1ccc(-c2ccccc2Cl)cc1 | inactive: -2.55 | inactive: -0.37 | inactive: -1
COc1ccc([C@@H]2Sc3ccccc3N(CCN)C(=O)[C@@H]2OC(C)=O)cc1 | inactive: -1.7 | inactive: -1.82 | inactive: -2.6
COc1ccc(OCCN(C)Cc2cc(C(C)C)c(C)cc2O)cc1 | inactive: -1.28 | inactive: -0.0973 | inactive: 0.296
Cc1c(-c2ccc(O)cc2)n(Cc2ccc(OCCN3CCCCCC3)cc2)c2ccc(O)cc12 [bazedoxifene acetate] | inactive: -0.447 | inactive: -1.35 | inactive: 0.909
O=C(c1ccc(CN2CCOCC2)cc1)N1CCN(C2CC2)CC1 [Bavisant] | inactive: 2.74 | inactive: 2.49 | inactive: -0.529
CC(=O)N[C@H](Cc1ccc(O)cc1)C(=O)N[C@H](CCCNC(=N)N)C(=O)N[C@H](Cc1ccccc1)C(N)=O | inactive: 0.413 | inactive: 0.898 | inactive: -0.0439
O=C1NC(=O)C(Cc2ccc(NC(=O)C3(c4ccccc4)CC3)cc2)S1 (centres undefined) | inactive: -2.34 | inactive: -0.733 | inactive: 1.51
CC(C)CC(NC(=O)C(Cc1cnc[nH]1)NC(=O)C(Cc1ccccc1)NC(=O)C1CCCN1C(=O)C(Cc1cnc[nH]1)NC(=O)C1CCCN1)C(=O)NC(CC(C)C)C(=O)NC(C(=O)NC(Cc1ccc(O)cc1)C(=O)NC(CCCCN)C(=O)O)C(C)C (centres undefined) [H-142, AstraZeneca] | inactive: -0.173 | inactive: -0.454 | inactive: 1.42
CC(C)N1C(=O)Cc2cc(N3CC(C(N)=O)OC3=O)ccc21 (centres undefined) | inactive: -1.28 | inactive: 1.59 | inactive: 1.37
Cc1cccc(-c2n[nH]cc2-c2ccc(F)c(-c3cnn(CCO)c3)c2)n1 | inactive: -0.683 | inactive: 0.165 | inactive: -2.24
CCOC(=O)Nc1cc2c(c(N)n1)NC(c1ccccc1)=C(C)N2 [mivobulin isethionate] | inactive: -2.82 | inactive: 3.1 | active: 8.42
CC(C)NCC(O)COc1ccccc1-n1cccc1 (centres undefined) [Isamoltane hemifumarate] | inactive: -2.03 | – | inactive: 0.0258
CC(C)NCC(O)COc1ccccc1-n1cccc1 (centres undefined) [Isamoltan hydrochloride] | – | inactive: -2.04 | –
CC(=O)NCCC(=O)N1CCC(n2c(=O)[nH]c3ccccc32)CC1 | inactive: -3.19 | – | inactive: -0.922
CCCCCCCCCCCCC/C=C/[C@H](O)[C@H](COP(=O)([O-])OCC[N+](C)(C)C)NC(=O)CCCCCCCCCCCCCCC | inactive: 3.88 | inactive: -0.42 | inactive: 0.101
CCC(C)[C@H](NC(=O)c1ccccc1SSc1ccccc1C(=O)N[C@H](C(=O)O)C(C)CC)C(=O)O (some centres undefined) | inactive: 3.17 | inactive: 0.365 | inactive: 0.592
COc1ccccc1OCCOCCOCCN1CCCCC1 | inactive: -0.466 | inactive: -1.7 | inactive: 0.401
CC(C)Cc1ccc(C(C)C(=O)NCCO)cc1 (centres undefined) [mabuprofen] | inactive: -1.29 | inactive: 4.22 | inactive: -0.561
CC(C)(C)OC[C@@H]1C(=O)NCCN1C(=O)C[C@H](N)Cc1cc(F)c(F)cc1F | inactive: 0.812 | inactive: 0.00227 | inactive: 0.265

Individual results from the entries so far.
TEAD-luciferase reporter activity (compound concentration: 10 uM), CC(C)N1C(=O)Cc2cc(N3CC(C(N)=O)OC3=O)ccc21 (centres undefined) reads inactive: 1.37
TEAD-luciferase reporter activity (compound concentration: 10 uM), Cc1c(C)c2ccc(OS(C)(=O)=O)cc2oc1=O reads inactive: 0.933

Additional entries.

Compound | TEAD-luciferase reporter activity (compound concentration: 200 nM) | TEAD-luciferase reporter activity (compound concentration: 2 uM) | TEAD-luciferase reporter activity (compound concentration: 10 uM)
NCCCC(N)CC(=O)NC1CNC(=O)C(C2CC(O)NC(N)=N2)NC(=O)/C(=C/NC(N)=O)NC(=O)C(CO)NC(=O)C(CO)NC1=O (centres undefined) | inactive: -0.404 | inactive: 0.843 | inactive: 4.26
Cc1cc(C(=O)N2CCCCc3ccccc32)ccc1CNC(=O)N1CCC[C@H]1C(=O)N(C)C [fedovapagon] | inactive: -2.57 | inactive: -0.969 | inactive: 0.285
CCCCC(CC)COC(=O)CC(C(=O)OCC(CC)CCCC)S(=O)(=O)[O-] (centres undefined) [Colace] | – | inactive: -0.191 | –
CCCCC(CC)COC(=O)CC(C(=O)OCC(CC)CCCC)S(=O)(=O)[O-] (centres undefined) | inactive: -2.3 | – | inactive: -0.64
C=CCn1c(=O)c2cnc(Nc3ccc(N4CCN(C)CC4)cc3)nc2n1-c1cccc(C(C)(C)O)n1 | inactive: 0.666 | inactive: -2.55 | inactive: -0.587
COCCN(CCOC)c1nc(C)nc2c1nnn2-c1ccc(C(C)C)cc1Br | inactive: 0.272 | inactive: -0.369 | inactive: -0.297
CC#C[C@@H](CC(=O)O)c1ccc(OCC2=CCCC3(CCCCC3)C2)cc1 | inactive: 1.43 | inactive: -0.521 | inactive: -0.677
Clc1ccc(C(Cn2ccnc2)OCc2ccc(Sc3ccccc3)cc2)c(Cl)c1 (centres undefined) [Fenticonazole nitrate] | inactive: -0.177 | inactive: -0.688 | inactive: -1.44
CC(c1ccccc1)C1Nc2cc(Cl)c(S(N)(=O)=O)cc2S(=O)(=O)N1 (centres undefined) [Bemetizide] | inactive: -1.18 | inactive: -0.37 | inactive: 0.647
Cn1c([N+](=O)[O-])cnc1/C=C/c1ccnc(N)n1 [azanidazole] | inactive: 0.439 | inactive: -1.68 | inactive: -0.212
NS(=O)(=O)NCc1csc2ccccc12 | inactive: -0.855 | inactive: 0.266 | inactive: 0.56
COc1ccc(Cc2ncc(CN3CCN(c4ccccc4OC)CC3)c3cc(OC)c(OC)cc23)cc1OC [Elziverine] | inactive: -0.455 | inactive: -1.15 | inactive: -0.821
CCCC(=O)N1Cc2ccccc2CC2(CCCN2Cc2ccc(OC)cc2)C1 (centres undefined) | inactive: 1.18 | – | inactive: 0.104
CC1CNc2c(cccc2S(=O)(=O)N[C@@H](CCCNC(=N)N)C(=O)N2CC[C@@H](C)C[C@@H]2C(=O)O)C1 (some centres undefined) [argatroban] | inactive: 0.85 | inactive: -1.8 | inactive: -0.799
Cc1cc(C(=O)NCCc2ccc(S(=O)(=O)NC(=O)NN3CCCCCC3)cc2)no1 [Glisoxepide] | inactive: -1.25 | inactive: 0.632 | inactive: -1.83
Oc1ccc2c(c1)CC[C@H](c1ccccc1)[C@@H]2c1ccc(OCCN2CCCC2)cc1 [Lasofoxifene] | inactive: -1.95 | inactive: -0.509 | inactive: -1.36
CC(C)Oc1ccc(-c2nn([C@@H](C)c3oc4ccc(F)cc4c(=O)c3-c3cccc(F)c3)c3ncnc(N)c23)cc1F | inactive: 0.224 | inactive: -1.31 | inactive: 1.74
CC(=O)O[C@H]1C[C@@H]2C(COC(=O)CC(C)C)=CO[C@@H](OC(=O)CC(C)C)[C@@H]2[C@@]12CO2 | inactive: -1.41 | inactive: 4.87 | inactive: 0.372
CCOC(=O)c1ccccc1NC(=O)c1ccc(NC(=O)CC)cc1 | inactive: -0.55 | inactive: 2.25 | inactive: -0.477
C=CCN1C(=O)OC(C)C1=O (centres undefined) | inactive: 1.27 | inactive: -1.1 | inactive: -0.0864
CN(C)CC(O)COc1ccccc1C1CC2CCC1C2 (centres undefined) | inactive: 0.305 | inactive: -1.94 | inactive: 0.207
CN(CCc1ccccc1)CCc1ccccc1 | inactive: -0.39 | inactive: 2.12 | inactive: 2.49
NC(=O)[C@@H]1CCCN1 | inactive: -0.445 | inactive: 2.25 | inactive: -0.237
N[C@H]1CCN(S(=O)(=O)c2cccc3cnccc23)C1 | inactive: -0.472 | inactive: -0.432 | inactive: -0.885
NC(=O)Nc1cc(-c2cccc(F)c2)sc1C(=O)N[C@H]1CCCNC1 | inactive: 2.44 | inactive: 0.905 | inactive: -1.87
C[C@@H]1O[C@@H](OC[C@H]2O[C@@H](Oc3c(-c4ccc(OCCO)c(OCCO)c4)oc4cc(OCCO)cc(O)c4c3=O)[C@H](O)[C@@H](O)[C@@H]2O)[C@H](O)[C@H](O)[C@H]1O [Factor P-Zyma] | active: 5.09 | inactive: -0.751 | inactive: -1.86
CCN(CC)C(=O)C1CN2CCc3cc(OC)c(OC)cc3C2CC1OC(C)=O (centres undefined) | inactive: -1.22 | inactive: -0.755 | inactive: -1.03

No new results follow: an excerpt of the list.
Compound | TEAD-luciferase reporter activity (compound concentration: 200 nM) | TEAD-luciferase reporter activity (compound concentration: 2 uM) | TEAD-luciferase reporter activity (compound concentration: 10 uM)
COCCN(CCOC)c1nc(C)nc2c1nnn2-c1ccc(C(C)C)cc1Br | inactive: 0.272 | inactive: -0.369 | inactive: -0.297
CC#C[C@@H](CC(=O)O)c1ccc(OCC2=CCCC3(CCCCC3)C2)cc1 | inactive: 1.43 | inactive: -0.521 | inactive: -0.677
